Data on two substances can be found in publication PMC9262213.

Amino acid sequences for entries named in this document (tags omitted). Residues count along the entry.
UniProt P61073: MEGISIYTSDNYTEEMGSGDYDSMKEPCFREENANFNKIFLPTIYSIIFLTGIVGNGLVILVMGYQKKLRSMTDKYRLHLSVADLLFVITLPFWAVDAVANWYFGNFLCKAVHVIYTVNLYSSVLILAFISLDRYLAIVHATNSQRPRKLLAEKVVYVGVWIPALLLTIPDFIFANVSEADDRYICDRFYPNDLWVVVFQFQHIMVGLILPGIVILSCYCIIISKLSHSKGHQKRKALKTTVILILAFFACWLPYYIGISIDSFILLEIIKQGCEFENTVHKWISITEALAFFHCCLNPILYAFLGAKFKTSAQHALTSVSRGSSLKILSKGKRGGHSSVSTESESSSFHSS
UniProt Q15116, residues 25-288: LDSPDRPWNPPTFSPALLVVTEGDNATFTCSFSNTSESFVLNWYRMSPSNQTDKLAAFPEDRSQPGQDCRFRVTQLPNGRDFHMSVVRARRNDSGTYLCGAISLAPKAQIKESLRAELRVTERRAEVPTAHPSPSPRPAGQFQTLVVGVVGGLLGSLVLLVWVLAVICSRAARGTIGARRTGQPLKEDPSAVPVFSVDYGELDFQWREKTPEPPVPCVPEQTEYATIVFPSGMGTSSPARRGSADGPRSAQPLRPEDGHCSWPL

The target of experiment [1] is C-X-C chemokine receptor 4 (CXCR4) (human (endogenous in MIAPaCa-2 and PANC-1)) (UniProt P61073). Kind of experiment: co-IP; endogenous proteins; lysates (Pierce IP lysis buffer, 1 mg total protein, precleared) of serum-starved MIAPaCa-2 and PANC-1 cells pre-treated with solvent or AMD3100 (1 uM, 45 min); IP overnight at 4°C with rabbit polyclonal anti-PD-1 (rabbit IgG isotype as control) or, reciprocally, mouse monoclonal anti-CXCR4; Protein A/G-Agarose Plus; western blot for PD-1 and CXCR4. (In western blotting, separated proteins are transferred to a membrane and probed.)

Experiment [2] has as its target programmed cell death protein-1 (PD-1) (human (endogenous in MIAPaCa-2 and PANC-1)) (UniProt Q15116). The description is as above.

These are yes or no findings as the source states them, for the method shown. Binding seen in cells or lysates may run through a third protein. Some results given as binding are weak or reduced against the parent protein; the word gives no strength.

Regarding “programmed cell death protein-1 (PD-1) (from UniProt Q15116 25-288) (receptor)”, the binding result in experiment [1] is “binds”. On to “C-X-C chemokine receptor 4 (CXCR4) (from UniProt P61073 1-352)”, for which, in experiment [2], the binding result is reported as “binds”.
